According to article PMC3096577:
Results are given in words; binding and its absence hold for the method and conditions named. Binding seen in cells or lysates may run through a third protein. Binding calls can cover weak binding; strength is not graded here.

Target: T1, FlbD (C. crescentus (endogenous in LS107 and JG1172)) (UniProt P17899)
T1 sequence: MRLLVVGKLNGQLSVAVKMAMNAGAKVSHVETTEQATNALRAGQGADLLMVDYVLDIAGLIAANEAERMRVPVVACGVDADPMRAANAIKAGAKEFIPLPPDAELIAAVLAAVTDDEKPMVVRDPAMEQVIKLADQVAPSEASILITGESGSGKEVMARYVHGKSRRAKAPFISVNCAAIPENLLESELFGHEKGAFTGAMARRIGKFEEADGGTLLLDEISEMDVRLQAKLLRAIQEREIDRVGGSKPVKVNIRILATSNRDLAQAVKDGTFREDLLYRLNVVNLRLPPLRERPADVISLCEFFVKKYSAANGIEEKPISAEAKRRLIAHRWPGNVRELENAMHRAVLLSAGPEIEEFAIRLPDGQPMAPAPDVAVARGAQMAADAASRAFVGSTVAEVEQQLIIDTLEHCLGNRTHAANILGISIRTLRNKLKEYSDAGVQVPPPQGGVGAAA
Assay: co-IP; pre-cleared extracts of JG1172 cells expressing fliX alleles incubated overnight with Agarose-Protein A-anti-FlbD complexes; immunoblot with anti-FliX antibodies

Substance | binding
FliX_(L136K) (C. crescentus) | binds
FliX_(Δ117-118) (C. crescentus) | binds weakly

Other lines, results leading:

binding | Substance
binds | FliX_(T130L) (C. crescentus)
binds | wild-type FliX (C. crescentus)
binds | FliX_(R71A) (C. crescentus)
